Reference: the supplement of paper PMC10849652
The other results are listed elsewhere or left out.

Amino acid sequences for entries named in this document (tags omitted). A change or cut given only in a name is not applied to a line headed by its entry.
UniProt Q96DA6: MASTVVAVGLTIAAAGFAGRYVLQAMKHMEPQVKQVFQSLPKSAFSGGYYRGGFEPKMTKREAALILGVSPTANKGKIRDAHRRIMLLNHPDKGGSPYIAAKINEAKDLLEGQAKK
UniProt Q99704: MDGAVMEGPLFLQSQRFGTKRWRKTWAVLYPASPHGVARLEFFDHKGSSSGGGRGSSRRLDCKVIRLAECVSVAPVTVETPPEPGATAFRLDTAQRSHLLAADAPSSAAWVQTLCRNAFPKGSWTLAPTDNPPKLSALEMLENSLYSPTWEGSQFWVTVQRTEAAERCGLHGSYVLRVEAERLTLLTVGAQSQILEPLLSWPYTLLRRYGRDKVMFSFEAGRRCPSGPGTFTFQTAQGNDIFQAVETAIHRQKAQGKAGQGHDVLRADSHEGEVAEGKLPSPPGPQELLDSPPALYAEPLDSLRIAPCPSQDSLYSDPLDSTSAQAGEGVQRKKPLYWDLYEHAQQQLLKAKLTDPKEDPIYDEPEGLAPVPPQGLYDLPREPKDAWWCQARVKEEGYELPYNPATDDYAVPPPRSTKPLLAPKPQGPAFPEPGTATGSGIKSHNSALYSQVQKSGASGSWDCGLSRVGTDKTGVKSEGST
UniProt P63172, whole entry, looked up: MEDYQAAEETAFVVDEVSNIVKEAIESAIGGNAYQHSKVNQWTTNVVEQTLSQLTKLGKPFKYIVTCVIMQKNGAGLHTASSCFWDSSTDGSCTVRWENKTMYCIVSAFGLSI
UniProt Q96N67: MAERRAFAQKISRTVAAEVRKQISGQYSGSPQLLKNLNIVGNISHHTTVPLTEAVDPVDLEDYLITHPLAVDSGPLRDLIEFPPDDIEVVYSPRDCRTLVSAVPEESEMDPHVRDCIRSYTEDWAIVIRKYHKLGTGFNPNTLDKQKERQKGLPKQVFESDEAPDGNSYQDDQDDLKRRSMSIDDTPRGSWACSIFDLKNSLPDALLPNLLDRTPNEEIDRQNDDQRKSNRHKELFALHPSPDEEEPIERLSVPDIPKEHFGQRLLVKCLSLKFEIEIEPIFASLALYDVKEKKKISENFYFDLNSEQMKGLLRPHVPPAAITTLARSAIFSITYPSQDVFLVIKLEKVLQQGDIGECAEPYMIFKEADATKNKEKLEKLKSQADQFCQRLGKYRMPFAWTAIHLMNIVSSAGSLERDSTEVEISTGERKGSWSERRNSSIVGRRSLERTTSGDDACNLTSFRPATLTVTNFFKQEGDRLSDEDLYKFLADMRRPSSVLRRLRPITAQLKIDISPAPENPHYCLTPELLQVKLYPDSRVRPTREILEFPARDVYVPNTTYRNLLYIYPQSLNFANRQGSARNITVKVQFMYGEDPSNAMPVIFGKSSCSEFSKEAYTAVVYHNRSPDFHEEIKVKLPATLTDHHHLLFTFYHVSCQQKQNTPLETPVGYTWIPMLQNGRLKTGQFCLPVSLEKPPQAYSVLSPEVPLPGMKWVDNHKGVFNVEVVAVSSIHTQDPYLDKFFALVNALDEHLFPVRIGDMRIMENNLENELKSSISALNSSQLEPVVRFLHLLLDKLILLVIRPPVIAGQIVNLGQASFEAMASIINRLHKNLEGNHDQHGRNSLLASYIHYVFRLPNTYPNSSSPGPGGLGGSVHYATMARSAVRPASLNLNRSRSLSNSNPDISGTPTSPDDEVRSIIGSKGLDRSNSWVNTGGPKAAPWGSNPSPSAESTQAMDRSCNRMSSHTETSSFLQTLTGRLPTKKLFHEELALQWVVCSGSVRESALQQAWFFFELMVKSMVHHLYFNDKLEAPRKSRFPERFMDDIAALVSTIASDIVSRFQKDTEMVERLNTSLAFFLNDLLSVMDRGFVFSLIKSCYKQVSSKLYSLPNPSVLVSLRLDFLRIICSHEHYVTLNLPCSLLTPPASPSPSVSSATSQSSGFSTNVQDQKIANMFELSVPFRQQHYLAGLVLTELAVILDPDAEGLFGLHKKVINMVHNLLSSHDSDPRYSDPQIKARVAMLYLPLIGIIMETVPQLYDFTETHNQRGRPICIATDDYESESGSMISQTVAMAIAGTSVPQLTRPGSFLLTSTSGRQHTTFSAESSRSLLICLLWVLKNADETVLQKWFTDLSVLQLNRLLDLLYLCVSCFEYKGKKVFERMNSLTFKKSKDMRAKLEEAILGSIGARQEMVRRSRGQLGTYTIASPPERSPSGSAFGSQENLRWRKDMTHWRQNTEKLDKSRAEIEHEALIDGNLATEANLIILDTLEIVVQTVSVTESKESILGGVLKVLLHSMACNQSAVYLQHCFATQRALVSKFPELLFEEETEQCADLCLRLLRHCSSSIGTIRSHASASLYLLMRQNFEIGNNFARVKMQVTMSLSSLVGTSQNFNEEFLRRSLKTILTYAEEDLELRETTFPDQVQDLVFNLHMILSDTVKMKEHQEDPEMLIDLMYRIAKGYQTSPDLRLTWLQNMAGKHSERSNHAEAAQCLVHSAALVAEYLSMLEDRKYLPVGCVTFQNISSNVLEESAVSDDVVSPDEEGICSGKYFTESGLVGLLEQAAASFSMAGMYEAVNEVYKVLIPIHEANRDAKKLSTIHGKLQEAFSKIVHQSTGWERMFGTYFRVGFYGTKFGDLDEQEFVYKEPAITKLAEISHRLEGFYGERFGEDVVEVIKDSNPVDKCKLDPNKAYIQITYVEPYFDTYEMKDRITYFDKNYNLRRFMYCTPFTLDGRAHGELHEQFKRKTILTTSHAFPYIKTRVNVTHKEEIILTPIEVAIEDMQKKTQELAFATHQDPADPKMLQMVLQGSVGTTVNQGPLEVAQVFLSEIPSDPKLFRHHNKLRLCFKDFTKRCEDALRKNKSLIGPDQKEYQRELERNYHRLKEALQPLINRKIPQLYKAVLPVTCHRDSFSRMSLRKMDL
UniProt Q5JPH6: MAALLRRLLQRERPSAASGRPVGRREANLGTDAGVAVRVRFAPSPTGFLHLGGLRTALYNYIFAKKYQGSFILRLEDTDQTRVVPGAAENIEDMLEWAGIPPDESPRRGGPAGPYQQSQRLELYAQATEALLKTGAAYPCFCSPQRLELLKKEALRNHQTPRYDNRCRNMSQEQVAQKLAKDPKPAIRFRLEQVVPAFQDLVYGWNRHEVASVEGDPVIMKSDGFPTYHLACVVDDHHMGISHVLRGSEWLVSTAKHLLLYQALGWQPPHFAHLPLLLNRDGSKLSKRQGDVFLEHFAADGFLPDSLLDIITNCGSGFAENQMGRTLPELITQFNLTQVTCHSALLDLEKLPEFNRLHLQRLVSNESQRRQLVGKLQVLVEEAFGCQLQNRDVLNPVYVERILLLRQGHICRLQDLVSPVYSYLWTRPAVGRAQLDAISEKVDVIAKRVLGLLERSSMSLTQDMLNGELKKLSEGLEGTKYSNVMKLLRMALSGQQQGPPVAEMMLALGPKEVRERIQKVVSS
UniProt O43237, whole entry, looked up: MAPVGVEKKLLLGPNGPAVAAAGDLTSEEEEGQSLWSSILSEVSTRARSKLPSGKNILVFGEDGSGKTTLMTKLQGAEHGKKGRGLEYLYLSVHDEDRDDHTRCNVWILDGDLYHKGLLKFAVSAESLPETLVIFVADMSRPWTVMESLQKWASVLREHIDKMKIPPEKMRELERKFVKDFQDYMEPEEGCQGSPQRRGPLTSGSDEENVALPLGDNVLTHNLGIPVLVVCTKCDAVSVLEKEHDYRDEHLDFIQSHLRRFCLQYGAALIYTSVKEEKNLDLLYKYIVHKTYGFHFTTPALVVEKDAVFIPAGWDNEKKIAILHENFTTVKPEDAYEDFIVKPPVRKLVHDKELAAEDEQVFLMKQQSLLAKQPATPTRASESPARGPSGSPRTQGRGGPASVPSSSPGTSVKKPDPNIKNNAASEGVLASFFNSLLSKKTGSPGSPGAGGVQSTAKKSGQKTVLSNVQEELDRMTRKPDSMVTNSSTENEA
UniProt Q15075: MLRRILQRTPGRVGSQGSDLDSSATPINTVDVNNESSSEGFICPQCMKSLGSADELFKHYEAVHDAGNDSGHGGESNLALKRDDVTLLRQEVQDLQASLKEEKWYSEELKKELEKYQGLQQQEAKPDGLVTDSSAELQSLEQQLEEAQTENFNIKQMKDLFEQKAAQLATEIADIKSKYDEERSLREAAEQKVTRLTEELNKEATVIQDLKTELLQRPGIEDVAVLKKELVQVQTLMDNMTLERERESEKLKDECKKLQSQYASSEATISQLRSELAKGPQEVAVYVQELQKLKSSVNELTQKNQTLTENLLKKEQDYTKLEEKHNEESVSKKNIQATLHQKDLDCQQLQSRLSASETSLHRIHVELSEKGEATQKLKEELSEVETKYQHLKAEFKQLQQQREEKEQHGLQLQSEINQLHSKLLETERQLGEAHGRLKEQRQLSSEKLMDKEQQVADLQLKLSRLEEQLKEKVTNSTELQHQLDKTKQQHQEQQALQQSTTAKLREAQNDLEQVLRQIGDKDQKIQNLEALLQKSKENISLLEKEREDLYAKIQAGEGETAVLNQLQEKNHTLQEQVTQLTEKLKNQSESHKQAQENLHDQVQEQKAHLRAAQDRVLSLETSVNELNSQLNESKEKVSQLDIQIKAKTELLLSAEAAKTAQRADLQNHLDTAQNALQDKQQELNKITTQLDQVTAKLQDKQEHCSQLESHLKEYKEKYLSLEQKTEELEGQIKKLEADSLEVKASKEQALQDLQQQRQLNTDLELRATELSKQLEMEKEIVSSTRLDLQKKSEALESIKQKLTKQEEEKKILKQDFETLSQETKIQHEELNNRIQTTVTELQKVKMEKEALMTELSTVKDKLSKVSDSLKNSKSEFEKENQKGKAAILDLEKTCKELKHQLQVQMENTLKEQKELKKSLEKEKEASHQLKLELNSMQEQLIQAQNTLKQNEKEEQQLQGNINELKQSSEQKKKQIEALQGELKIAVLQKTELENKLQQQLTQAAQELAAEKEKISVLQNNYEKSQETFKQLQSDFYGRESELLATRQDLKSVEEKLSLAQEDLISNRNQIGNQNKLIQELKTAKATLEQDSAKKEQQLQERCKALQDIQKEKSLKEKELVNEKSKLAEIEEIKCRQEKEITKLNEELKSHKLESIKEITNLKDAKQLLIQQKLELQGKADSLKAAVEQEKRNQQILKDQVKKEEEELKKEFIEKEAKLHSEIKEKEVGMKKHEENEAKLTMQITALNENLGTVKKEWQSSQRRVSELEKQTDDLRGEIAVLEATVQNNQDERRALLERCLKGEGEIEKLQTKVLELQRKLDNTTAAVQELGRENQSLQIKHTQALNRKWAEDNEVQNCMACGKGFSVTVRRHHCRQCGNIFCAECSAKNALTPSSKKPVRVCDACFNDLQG
UniProt Q5SXM8: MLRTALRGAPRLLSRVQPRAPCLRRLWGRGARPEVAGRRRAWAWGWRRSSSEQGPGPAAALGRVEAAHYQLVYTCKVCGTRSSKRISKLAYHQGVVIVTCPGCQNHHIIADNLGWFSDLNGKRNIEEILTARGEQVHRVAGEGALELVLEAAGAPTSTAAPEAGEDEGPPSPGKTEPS
UniProt Q6P3W2: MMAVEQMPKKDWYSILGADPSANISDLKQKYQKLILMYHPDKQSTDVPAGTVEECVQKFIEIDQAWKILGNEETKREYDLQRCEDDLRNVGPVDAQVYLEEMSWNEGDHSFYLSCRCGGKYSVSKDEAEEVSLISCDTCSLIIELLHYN
UniProt Q9H3Z4: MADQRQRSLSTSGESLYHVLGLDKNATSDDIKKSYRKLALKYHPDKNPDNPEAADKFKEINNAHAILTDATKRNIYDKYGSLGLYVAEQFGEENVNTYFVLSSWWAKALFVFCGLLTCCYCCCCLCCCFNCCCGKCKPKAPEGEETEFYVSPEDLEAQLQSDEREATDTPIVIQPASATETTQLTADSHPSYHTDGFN

Assays:
Experiment in all cases: log2 fold change, soluble protein after heating vs DMSO (PISA); higher = thermal stabilisation; K562 cells, 10 uM, 30 min; active = over 0.2 and 3.5 SD of the protein, either way, in both replicates (recomputed)
[1] = compound: CS(=O)(=O)c1ccc(-c2cnc(N)c(C(=O)Nc3ccccc3)n2)cc1
How it was run: (§1)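 K562 cells at 2×10^6 cells/mL were treated with 10 μM compound for 30 min. Aliquots were heated for 3 min across 48°C-58°C, pooled, and extracted in PBS with 0.5% NP-40 at 4°C; soluble protein was the supernatant after 21,000xg for 90 min. Soluble protein was quantified by TMTpro 16plex LC-MS/MS with channel sums equalised, and reported as log2 fold change in thermal stability against DMSO controls, with values from duplicates.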

[2] = compound: C[C@@H](Oc1cc(-c2cnn(C3CCNCC3)c2)cnc1N)c1c(Cl)ccc(F)c1Cl [crizotinib]
How it was run: as §1

[3] = compound: C[C@@H]1COCCN1C2=NC(=NC(=C2)C3(CC3)S(=O)(=O)C)C4=C5C=CNC5=CC=C4
How it was run: as §1

[4] = compound: C[C@H](C1=CC=C(C=C1)C(=O)NC2=C3C=CNC3=NC=C2)N
How it was run: as §1

[5] = compound: Cc1cc(Nc2cc(CN3CCOCC3)c3nc(C)c(Cc4ccc(Cl)cc4F)n3n2)n[nH]1 [gandotinib]
How it was run: as §1

[6] = compound: Cc1cc(SCc2sc(-c3ccc(C(F)(F)F)cc3)nc2C)ccc1OCC(=O)O
How it was run: as §1

[7] = compound: Cc1ccc(-n2nc(C(C)(C)C)cc2NC(=O)Nc2ccc(OCCN3CCOCC3)c3ccccc23)cc1 [doramapimod]
How it was run: as §1

[8] = compound: Cc1ccc(C(=O)N(CCCN)[C@@H](c2nc3cc(Cl)ccc3c(=O)n2Cc2ccccc2)C(C)C)cc1 [ispinesib]
How it was run: as §1

[9] = compound: Cc1ccc(NC(=O)c2ccc(CN3CC[C@H](N(C)C)C3)c(C(F)(F)F)c2)cc1Nc1nccc(-c2cncnc2)n1 [bafetinib]
How it was run: as §1

[10] = compound: Cc1cccc(CC(=O)N2CCc3c2ccc(-c2cn(C)c4ncnc(N)c24)c3F)n1
How it was run: as §1

[11] = compound: Cc1cn(-c2cc(NC(=O)c3ccc(C)c(Nc4nccc(-c5cccnc5)n4)c3)cc(C(F)(F)F)c2)cn1 [nilotinib]
How it was run: as §1

[12] = compound: Cc1nc(Nc2n[nH]c3c2CN(C(=O)N[C@H](CN(C)C)c2ccccc2)C3(C)C)c2sccc2n1
How it was run: as §1

[13] = compound: Cc1nc(Nc2ncc(C(=O)Nc3c(C)cccc3Cl)s2)cc(N2CCN(CCO)CC2)n1 [dasatinib]
How it was run: as §1

[14] = compound: Cc1ncc(-c2ccnc(Nc3ccc(S(C)(=O)=O)cc3)n2)n1C(C)C
How it was run: as §1

[15] = compound: Cn1cc(-c2ccc3c(c2)CCN3C(=O)Cc2cccc(C(F)(F)F)c2)c2c(N)ncnc21
How it was run: as §1

[16] = compound: Cn1cc(-c2ccc3nnc(C(F)(F)c4ccc5ncccc5c4)n3n2)cn1
How it was run: as §1

[17] = compound: Cn1cncc1[C@@](N)(c1ccc(Cl)cc1)c1ccc2c(c1)c(-c1cccc(Cl)c1)cc(=O)n2C [tipifarnib]
How it was run: as §1

[18] = compound: FC(F)(F)c1ccc(/C=C/c2nc(COc3ccc(CCCCn4ccnn4)cc3)co2)cc1 [mubritinib]
How it was run: as §1

[19] = compound: Cc1cc(Nc2cc(N3CCN(C)CC3)nc(Sc3ccc(NC(=O)C4CC4)cc3)n2)n[nH]1 [tozasertib]
How it was run: as §1

[20] = compound: C[C@H](Nc1ncnc2nc[nH]c12)c1cc2cccc(Cl)c2c(=O)n1-c1ccccc1 [duvelisib]
How it was run: as §1

Target: DNAJC19 (UniProt Q96DA6)
- log2 fold change [1]: inactive: 0.008
- log2 fold change [2]: inactive: -0.073
- log2 fold change [3]: inactive: 0.055
- log2 fold change [4]: inactive: -0.089
- log2 fold change [5]: inactive: 0.011
- log2 fold change [6]: inactive: -0.017
- log2 fold change [7]: inactive: -0.011
- log2 fold change [8]: inactive: -0.069
- log2 fold change [9]: inactive: -0.123
- log2 fold change [10]: inactive: 0.003
- log2 fold change [11]: inactive: 0.025
- log2 fold change [12]: inactive: 0.002
- log2 fold change [13]: inactive: -0.003
- log2 fold change [14]: inactive: -0.005
- log2 fold change [15]: inactive: 0.012
- log2 fold change [16]: inactive: 0.022
- log2 fold change [17]: inactive: 0.012
- log2 fold change [18]: inactive: 0.001

Target: DOK1 (UniProt Q99704)
- log2 fold change [1]: inactive: 0.257
- log2 fold change [2]: inactive: 0.07
- log2 fold change [3]: inactive: 0.171
- log2 fold change [4]: inactive: 0.034
- log2 fold change [19]: inactive: 0.089
- log2 fold change [7]: inactive: -0.183
- log2 fold change [9]: inactive: -0.213
- log2 fold change [11]: inactive: 0.024
- log2 fold change [12]: inactive: 0.064
- log2 fold change [14]: inactive: -0.017
- log2 fold change [15]: inactive: -0.055
- log2 fold change [17]: inactive: -0.142
- log2 fold change [18]: inactive: 0.164

Target: DYNLT1 (UniProt P63172)
- log2 fold change [1]: inactive: -0.054
- log2 fold change [2]: inactive: 0.006
- log2 fold change [4]: inactive: -0.074
- log2 fold change [20]: inactive: 0.118
- log2 fold change [5]: inactive: -0.016
- log2 fold change [19]: inactive: 0.003
- log2 fold change [6]: inactive: 0.063
- log2 fold change [7]: inactive: -0.078
- log2 fold change [8]: inactive: 0.124
- log2 fold change [9]: inactive: 0.011
- log2 fold change [10]: inactive: 0.145
- log2 fold change [11]: inactive: 0.034
- log2 fold change [12]: inactive: 0.034
- log2 fold change [13]: inactive: -0.081
- log2 fold change [14]: inactive: 0.112
- log2 fold change [15]: inactive: 0.152
- log2 fold change [16]: inactive: 0.004
- log2 fold change [17]: inactive: -0.058
- log2 fold change [18]: inactive: 0.023

Target: DOCK7 (UniProt Q96N67)
- log2 fold change [1]: inactive: 0.059
- log2 fold change [3]: inactive: 0.1
- log2 fold change [4]: inactive: -0.059
- log2 fold change [20]: inactive: -0.004
- log2 fold change [5]: inactive: -0.037
- log2 fold change [19]: inactive: -0.024
- log2 fold change [6]: inactive: 0.041
- log2 fold change [8]: inactive: -0.091
- log2 fold change [9]: inactive: 0.026
- log2 fold change [10]: inactive: 0.023
- log2 fold change [11]: inactive: 0.043
- log2 fold change [12]: inactive: 0.131
- log2 fold change [13]: inactive: 0
- log2 fold change [14]: inactive: -0.079
- log2 fold change [15]: inactive: 0.084
- log2 fold change [16]: inactive: -0.023
- log2 fold change [17]: inactive: -0.07
- log2 fold change [18]: inactive: 0.052

Target: EARS2 isoform 2 (UniProt Q5JPH6)
- log2 fold change [1]: inactive: 0.091
- log2 fold change [2]: inactive: 0.046
- log2 fold change [3]: inactive: 0.221
- log2 fold change [20]: inactive: 0.157
- log2 fold change [19]: inactive: -0.037
- log2 fold change [6]: inactive: 0.145
- log2 fold change [7]: inactive: -0.017
- log2 fold change [8]: inactive: 0.139
- log2 fold change [9]: inactive: 0.003
- log2 fold change [11]: inactive: -0.284
- log2 fold change [12]: inactive: -0.288
- log2 fold change [13]: inactive: -0.325
- log2 fold change [14]: inactive: -0.014
- log2 fold change [16]: inactive: 0.231
- log2 fold change [17]: inactive: -0.085
- log2 fold change [18]: inactive: -0.278

Target: DOCK11, A0A0J9YW64
- log2 fold change [1]: inactive: 0.206
- log2 fold change [2]: inactive: 0.19
- log2 fold change [7]: inactive: 0.032
- log2 fold change [18]: inactive: 0.064

Target: DYNC1LI2 (UniProt O43237)
- log2 fold change [1]: inactive: 0.025
- log2 fold change [2]: inactive: 0.079
- log2 fold change [3]: inactive: -0.283
- log2 fold change [4]: inactive: 0.393
- log2 fold change [5]: inactive: 0.235
- log2 fold change [6]: inactive: 0.054
- log2 fold change [7]: inactive: -0.121
- log2 fold change [8]: inactive: -0.026
- log2 fold change [9]: inactive: -0.041
- log2 fold change [10]: inactive: -0.004
- log2 fold change [11]: inactive: 0.109
- log2 fold change [12]: inactive: 0.015
- log2 fold change [13]: inactive: -0.068
- log2 fold change [14]: inactive: 0.125
- log2 fold change [15]: inactive: -0.184
- log2 fold change [16]: inactive: 0.052
- log2 fold change [17]: inactive: -0.01
- log2 fold change [18]: inactive: 0.024

Target: EEA1 (UniProt Q15075)
- log2 fold change [1]: inactive: -0.007
- log2 fold change [2]: inactive: -0.007
- log2 fold change [3]: inactive: -0.014
- log2 fold change [4]: inactive: -0.046
- log2 fold change [5]: inactive: 0.02
- log2 fold change [6]: inactive: -0.04
- log2 fold change [7]: inactive: 0.002
- log2 fold change [8]: active: -0.22
- log2 fold change [9]: inactive: -0.043
- log2 fold change [10]: inactive: -0.021
- log2 fold change [11]: inactive: 0.013
- log2 fold change [12]: inactive: 0
- log2 fold change [13]: inactive: 0.061
- log2 fold change [14]: inactive: 0.004
- log2 fold change [15]: inactive: -0.015
- log2 fold change [16]: inactive: 0.028
- log2 fold change [17]: inactive: 0.007
- log2 fold change [18]: inactive: 0.041

Target: DUSP12 (UniProt V9GYV5)
- log2 fold change [1]: inactive: -0.282
- log2 fold change [2]: inactive: -0.032
- log2 fold change [3]: inactive: 0.105
- log2 fold change [7]: inactive: -0.014

Target: DNLZ (UniProt Q5SXM8)
- log2 fold change [1]: inactive: -0.024
- log2 fold change [3]: inactive: 0.108
- log2 fold change [4]: inactive: -0.012
- log2 fold change [20]: inactive: 0.014
- log2 fold change [19]: inactive: -0.007
- log2 fold change [6]: inactive: -0.081
- log2 fold change [8]: inactive: 0.004
- log2 fold change [9]: inactive: -0.032
- log2 fold change [11]: inactive: 0.071
- log2 fold change [12]: inactive: 0.02
- log2 fold change [13]: inactive: 0.047
- log2 fold change [14]: inactive: 0
- log2 fold change [15]: inactive: -0.065
- log2 fold change [16]: inactive: 0.082
- log2 fold change [17]: inactive: 0.08
- log2 fold change [18]: inactive: -0.063

Target: DNPEP (UniProt C9JBE1)
- log2 fold change [1]: inactive: 0.01
- log2 fold change [2]: inactive: 0.08
- log2 fold change [3]: inactive: 0.069
- log2 fold change [20]: inactive: 0.09
- log2 fold change [5]: inactive: 0
- log2 fold change [19]: inactive: -0.012
- log2 fold change [6]: inactive: -0.162
- log2 fold change [7]: inactive: 0.031
- log2 fold change [9]: inactive: -0.082
- log2 fold change [10]: inactive: -0.378
- log2 fold change [13]: inactive: 0.089
- log2 fold change [17]: inactive: 0.075
- log2 fold change [18]: inactive: 0.127

Target: DNAJC24 (UniProt Q6P3W2)
- log2 fold change [1]: inactive: -0.054
- log2 fold change [2]: inactive: 0.055
- log2 fold change [3]: inactive: -0.031
- log2 fold change [4]: inactive: -0.004
- log2 fold change [6]: inactive: -0.024
- log2 fold change [7]: inactive: 0.038
- log2 fold change [8]: inactive: 0.01
- log2 fold change [9]: inactive: -0.079
- log2 fold change [11]: inactive: 0.019
- log2 fold change [12]: inactive: -0.054
- log2 fold change [13]: inactive: 0.053
- log2 fold change [14]: inactive: 0.016
- log2 fold change [15]: inactive: -0.1
- log2 fold change [16]: inactive: -0.201
- log2 fold change [17]: inactive: 0.084
- log2 fold change [18]: inactive: 0.06

Target: DNAJC5 (UniProt Q9H3Z4)
- log2 fold change [1]: inactive: 0.056
- log2 fold change [2]: inactive: 0.192
- log2 fold change [3]: inactive: -0.083
- log2 fold change [20]: inactive: -0.103
- log2 fold change [5]: inactive: 0.035
- log2 fold change [19]: inactive: -0.123
- log2 fold change [6]: inactive: 0.041
- log2 fold change [7]: inactive: -0.071
- log2 fold change [8]: inactive: 0.088
- log2 fold change [9]: inactive: -0.081
- log2 fold change [10]: inactive: -0.059
- log2 fold change [11]: inactive: 0.024
- log2 fold change [12]: inactive: 0.009
- log2 fold change [13]: inactive: 0.054
- log2 fold change [14]: inactive: 0.119
- log2 fold change [16]: inactive: -0.038
- log2 fold change [17]: inactive: 0.142
- log2 fold change [18]: inactive: -0.008

Target: DOCK10 (UniProt Q96BY6)
- log2 fold change [2]: inactive: 0.049
- log2 fold change [19]: inactive: -0.104
- log2 fold change [7]: inactive: 0.011
- log2 fold change [8]: inactive: 0.008
- log2 fold change [11]: inactive: -0.336
- log2 fold change [12]: inactive: 0.016
- log2 fold change [14]: inactive: -0.15
- log2 fold change [16]: inactive: 0
- log2 fold change [18]: inactive: 0.114
